# PubChem BioAssay AID743454, Peter MacCallum Cancer Centre, 2014
# Aim: 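Knock-downs lowering viability or raising caspase 3/7 activity in vorinostat-treated resistant cells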 (primary screen)
# Cell system: human HCT116-VR colon cancer cells, selected for vorinostat resistance
# Knock-down reagent: siRNA pool against human genes, 40 nM siRNA pool
# Duration: vorinostat for 24 h, read-out about 72 h after transfection
# Challenge: vorinostat at 2.5 µM final
# Detection: 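Cell viability by CellTiter-Fluor and caspase 3/7 activity by luminescence, each scaled to mock wells per plate, duplicates averaged, then robust z-scored over all plates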
# Scale: viability robust z-score: higher = more viable cells than screen typical; caspase robust z-score: higher = more caspase 3/7 activity than screen typical
# Active means: 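a knock-down is a hit when classed RV1 or RV2 for lowered viability, or CA1 or CA2 for caspase activation; those lethal without drug were dropped; hits were retested singly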
# The deposit covers about 18,000 reagents; below is a part drawn at random. 450 of them (2.5%) were called active. 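Single biological run; no consistent viability z cut-off exists, so the class columns, not z-scores, define the calls.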
gene symbol,viability hit class,caspase hit class,viability robust z-score,caspase robust z-score,Outcome
SALL1 (spalt like transcription factor 1),RV2 (reduced viability),no change,-3,-0.19,active
ACCS,no change,no change,1.54,-0.46,inactive
CATSPERE (catsper channel auxiliary subunit epsilon),no change,no change,1.3,-0.78,inactive
CENPI (centromere protein I),no change,no change,-0.9,-1.21,inactive
SRSF12 (serine and arginine rich splicing factor 12),no change,no change,0.48,0.68,inactive
ATG4D (autophagy related 4D cysteine peptidase),no change,no change,-1.4,-0.71,inactive
COX4I1 (cytochrome c oxidase subunit 4I1),no change,no change,0.7,-0.64,inactive
ACRBP (acrosin binding protein),no change,no change,-0.96,4.36,inactive
DHRS11 (dehydrogenase/reductase 11),no change,no change,0.6,-0.54,inactive
MIMS1 (mitochondrial inner membrane structural 1),no change,no change,-0.78,-0.94,inactive
"USF2 (upstream transcription factor 2, c-fos interacting)",no change,no change,-0.36,1.19,inactive
OLIG1 (oligodendrocyte transcription factor 1),no change,no change,-1.11,1.82,inactive
ERMP1 (endoplasmic reticulum metallopeptidase 1),no change,no change,0.98,-0.94,inactive
FAM110B (family with sequence similarity 110 member B),no change,no change,-1.85,-0.15,inactive
WTIP (WT1 interacting protein),no change,no change,0.71,0.06,inactive
FAM217B (family with sequence similarity 217 member B),no change,no change,0.4,-0.09,inactive
C9orf152 (chromosome 9 open reading frame 152),no change,no change,0.02,-0.78,inactive
CDK12 (cyclin dependent kinase 12),no change,no change,-0.66,0.1,inactive
KRTAP12-3 (keratin associated protein 12-3),no change,no change,-0.16,-0.66,inactive
SLC29A2,no change,no change,-1.39,0.53,inactive
C14orf39 (chromosome 14 open reading frame 39),no change,no change,1.76,-0.33,inactive
SH3BGR (SH3 domain binding glutamate rich protein),no change,no change,0.88,-1.14,inactive
LINC00303 (long independently transcribed non-coding RNA 303),no change,no change,0.04,-0.72,inactive
IFNB1 (interferon beta 1),no change,no change,-0.17,2.83,inactive
OR4S1 (olfactory receptor family 4 subfamily S member 1),no change,no change,-0.5,-0.64,inactive
CCDC12 (coiled-coil domain containing 12),no change,no change,-2.01,3.21,inactive
WNT6 (Wnt family member 6),no change,no change,-0.04,0.7,inactive
MYL2 (myosin light chain 2),no change,no change,0.51,0.18,inactive
RANGAP1 (Ran GTPase activating protein 1),no change,no change,0.19,-0.22,inactive
PLPBP (pyridoxal phosphate binding protein),no change,no change,0.03,-0.12,inactive
NGF (nerve growth factor),no change,no change,-0.38,-0.68,inactive
"METRNL (meteorin like, glial cell differentiation regulator)",no change,CA1 (caspase activation),-1.18,5.37,active
CDKN1B (cyclin dependent kinase inhibitor 1B),no change,no change,-0.2,-0.92,inactive
ZFPL1 (zinc finger protein like 1),no change,no change,-0.14,-0.17,inactive
GADD45GIP1 (GADD45G interacting protein 1),no change,no change,-0.52,0.83,inactive
CCDC51 (coiled-coil domain containing 51),no change,no change,-1,1.22,inactive
IRS2 (insulin receptor substrate 2),no change,no change,-0.03,-0.44,inactive
MORF4L2 (mortality factor 4 like 2),no change,no change,0.32,-0.02,inactive
ZNF34 (zinc finger protein 34),no change,no change,1.17,-0.26,inactive

Single entries from the entries so far.
For “caspase hit class”, SRSF12 (serine and arginine rich splicing factor 12) has no change
Value of IRS2 (insulin receptor substrate 2) under “caspase robust z-score”: -0.44
FAM110B (family with sequence similarity 110 member B), Outcome: inactive
ACCS, caspase robust z-score → -0.46
OR4S1 (olfactory receptor family 4 subfamily S member 1), viability hit class = no change
For “viability hit class”, RANGAP1 (Ran GTPase activating protein 1) has no change
